From PMC3179511 come the findings set out here.

Protein sequences, listed by entry. Tags and fused reporters are not part of them. Residues count along the entry.
UniProt P0DMV8: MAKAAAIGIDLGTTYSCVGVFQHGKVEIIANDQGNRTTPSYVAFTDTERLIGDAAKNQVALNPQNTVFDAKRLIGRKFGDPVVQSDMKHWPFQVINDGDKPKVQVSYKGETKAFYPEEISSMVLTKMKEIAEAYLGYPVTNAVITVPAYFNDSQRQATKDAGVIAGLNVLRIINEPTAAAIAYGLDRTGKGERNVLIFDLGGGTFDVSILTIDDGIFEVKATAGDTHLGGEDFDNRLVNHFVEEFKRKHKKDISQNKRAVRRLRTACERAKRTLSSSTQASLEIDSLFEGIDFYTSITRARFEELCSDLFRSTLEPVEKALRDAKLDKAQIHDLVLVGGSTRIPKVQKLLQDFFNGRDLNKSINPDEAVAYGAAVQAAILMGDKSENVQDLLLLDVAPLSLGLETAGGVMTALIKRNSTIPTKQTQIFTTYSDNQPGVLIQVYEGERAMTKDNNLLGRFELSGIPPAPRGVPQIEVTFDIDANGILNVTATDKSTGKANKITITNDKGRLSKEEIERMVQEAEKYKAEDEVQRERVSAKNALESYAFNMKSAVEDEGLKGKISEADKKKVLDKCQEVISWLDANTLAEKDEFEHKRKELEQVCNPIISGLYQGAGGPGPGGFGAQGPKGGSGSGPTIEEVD
UniProt P33426, residues 20-660: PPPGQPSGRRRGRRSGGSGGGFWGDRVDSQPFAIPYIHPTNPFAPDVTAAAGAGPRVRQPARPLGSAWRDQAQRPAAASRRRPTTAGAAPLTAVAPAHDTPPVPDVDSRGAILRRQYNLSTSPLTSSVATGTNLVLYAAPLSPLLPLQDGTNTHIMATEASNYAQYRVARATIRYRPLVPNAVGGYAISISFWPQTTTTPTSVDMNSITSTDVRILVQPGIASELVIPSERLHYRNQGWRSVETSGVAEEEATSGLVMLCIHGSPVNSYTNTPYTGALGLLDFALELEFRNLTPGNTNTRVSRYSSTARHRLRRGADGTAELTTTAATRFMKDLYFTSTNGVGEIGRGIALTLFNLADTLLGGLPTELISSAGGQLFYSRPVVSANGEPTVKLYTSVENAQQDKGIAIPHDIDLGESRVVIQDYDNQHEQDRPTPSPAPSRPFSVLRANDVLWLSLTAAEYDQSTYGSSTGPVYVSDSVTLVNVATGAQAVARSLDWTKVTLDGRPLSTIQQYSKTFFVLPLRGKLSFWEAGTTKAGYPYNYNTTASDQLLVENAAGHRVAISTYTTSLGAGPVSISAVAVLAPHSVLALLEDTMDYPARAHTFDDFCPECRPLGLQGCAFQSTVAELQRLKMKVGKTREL

Results are given in words; binding and its absence hold for the method and conditions named. Binding seen in cells or lysates may run through a third protein. Some entries that bind do so weakly or less than the wild type.

This test deals with Hsp72 (HSPA1A), heat shock 70 kDa protein 1A (human (endogenous in HEK293)) (UniProt P0DMV8). Description: co-IP; 200 µg lysate of HEK293 cells transfected with pcDNA3.1-HEV ORF2, precipitated with 2 µg anti-Hsp72 antibody or control IgG, protein A/G agarose beads, washed with PBST; Western blot with anti-His-probe antibody. On the technique in general: A western blot detects proteins with antibodies after separation by electrophoresis.

For “Hepatitis E virus (HEV) capsid protein open reading frame 2 (ORF2), His-tagged (from UniProt P33426 20-660)”, the binding entry is given as “binds”.
